Assay results taken from PubChem BioAssay AID540276 (National Center for Advancing Translational Sciences (NCATS), 2011).
The whole screen tested about 300,000 compounds, of which about 5,400 (1.8%) were called active. The inconclusive results got no clear call from the source; some entries with a clear call stand among them for comparison. Calls follow the shape of the full dose curve; tested in HEK293 cells. Potencies beside an inconclusive call are fits to weak or partial responses and may not hold up.

Experiment: qHTS for inhibitors of binding or entry into cells for Marburg Virus
Conditions: Marburg virus pseudotyped entry inhibition, cell reporter; series mostly up to 37.8 µM
Potency is read from the fitted curve at half-maximal effect.

Row | SMILES | Potency
1 | CC1=C(C)CS(=O)N(S(=O)(=O)c2ccccc2)C1 (stereo unspecified) | active: 13 µM
2 | CCOC(=O)c1ccccc1NC(=O)CSc1nnnn1C1CCCCC1 | inconclusive: 25.9 µM [inhibitor, single point]
3 | COc1cccc(NS(=O)(=O)c2ccc3c(c2)CCCN3C(C)=O)c1 | inactive
4 | CCOC(=O)c1ccc(NC(=O)c2cc3sccc3n2Cc2ccc(Cl)cc2)cc1 | inconclusive: 10 µM [inhibitor, partial curve, poor fit]
5 | CC(=O)Nc1ccc(N(CC(O)Cn2c3ccccc3c3ccccc32)S(=O)(=O)c2ccc(C)cc2)cc1 (stereo unspecified) | inconclusive: 11.2 µM [inhibitor, partial curve, poor fit]
6 | COc1cc2c(cc1OC)CN(c1nc(CN3CCCCC3)nc3sc4c(c13)CCCC4)CC2 | inconclusive: 16.4 µM [inhibitor, single point]
7 | CCc1nc(OCC(=O)c2ccccc2)c(C#N)c2c1COC(C)(C)C2 | inactive
8 | CC(=O)c1c(C)oc2ccc(N(C(C)=O)S(=O)(=O)c3ccc(Br)cc3)cc12 | inconclusive: 35.5 µM [inhibitor, single point]
9 | CS/C(=C\[N+](=O)[O-])Nc1ccccc1 | inactive
10 | CC(C)CCNC(=O)CCc1nnc2n(CCCOC(C)C)c(=O)c3ccccc3n12 | inactive
11 | C1=C(CCNc2ncnc3nc[nH]c23)CCCC1 | inactive
12 | Cc1ccc(-c2nc3ncccc3o2)cc1NC(=O)c1ccc(-c2ccc(Cl)cc2)o1 | inconclusive: 6.31 µM [inhibitor, single point]
13 | Cc1ccc(N(Cc2cccs2)C(=O)c2ccccc2Cl)cc1 | inconclusive: 3.55 µM [inhibitor, full curve, poor fit]
14 | CCc1nnc(NC(=O)CSc2ncnc3scc(-c4ccc(C)cc4)c23)s1 | inconclusive: 7.3 µM [inhibitor, partial curve]
15 | CCCC(c1nnnn1CC1CCCO1)N1CCN(c2cc(Cl)ccc2C)CC1 (stereo unspecified) | inconclusive: 8.91 µM [inhibitor, partial curve, poor fit]
16 | Cc1cccc(NP(=O)(Oc2ccccc2F)Oc2ccccc2F)c1 | inconclusive: 28.2 µM [inhibitor, single point]
17 | CC(C)C(=O)Nc1ccc(NC(=O)c2ccccc2Cl)nc1 | inconclusive: 1.78 µM [inhibitor, partial curve, poor fit]
18 | CC(C)N1CCC(N2CCN(C/C=C/c3ccccc3)CC2CCO)CC1 (stereo unspecified) | inconclusive: 2.24 µM [inhibitor, partial curve, poor fit]
19 | Cc1cccc(NC(=O)CSc2nc(-c3ccco3)cc(C(F)(F)F)n2)c1C | inconclusive: 2.82 µM [inhibitor, partial curve, poor fit]
20 | c1ccc(C2=Nn3c(nnc3-c3ccccn3)SC2)cc1 | inactive
21 | O=C(CSC1CC(=O)N(CC(c2ccccc2)c2ccccc2)C1=O)Nc1ccc(Cl)cc1 (stereo unspecified) | inconclusive: 29.1 µM [inhibitor, single point]
22 | Cc1cccc(S(=O)(=O)Nc2ccc(-n3c(C)nc4ccccc4c3=O)cc2)c1 | inactive

Row | SMILES | Potency
23 | CCN(CC)CCCOc1ccc(Cl)c(Cl)c1 | inconclusive: 11.6 µM [inhibitor, partial curve, poor fit]
24 | CCOc1cc(Br)cc(/C=N/NC(=O)c2cccnc2)c1O | inconclusive: 6.31 µM [inhibitor, full curve, poor fit]
25 | O=C1CC(N(Cc2cccs2)C(=O)Nc2ccccc2)C(=O)N1c1ccc(Cl)cc1 (stereo unspecified) | inconclusive: 3.55 µM [activator, single point]
26 | CC1=CC(C)(C)N(C(=O)CSc2nnc(C)s2)c2ccc(C)cc21 | inactive
27 | CCOC(=O)CNC(=O)c1sc2ncnc(N3CCc4ccccc4C3)c2c1C | inconclusive: 1.12 µM [inhibitor, full curve, poor fit]
28 | O=c1cc(-c2ccc([N+](=O)[O-])cc2)c2ccc(O)cc2o1 | inconclusive: 14.1 µM [inhibitor, single point]
29 | CCc1ccc2[nH]c(=O)c(C(c3nnnn3CCOC)N3CCN(c4ccccc4F)CC3)cc2c1 (stereo unspecified) | inconclusive: 7.94 µM [inhibitor, partial curve]
30 | CC1(C)Cc2c(C#N)c(SCCOc3ccccc3)nc(N3CCOCC3)c2CO1 | inconclusive: 6.51 µM [inhibitor, full curve, poor fit]
31 | Cc1noc(NS(=O)(=O)c2ccc(N/C=C/C(=O)c3ccc4c(c3)OCO4)cc2)c1C | inconclusive: 0.651 µM [inhibitor, single point]
32 | COC(=O)c1c(C)[nH]c(C(=O)CSc2ccc(Cl)cc2)c1C | inconclusive: 22.4 µM [inhibitor, single point]
33 | COc1ccc(CCCC(=O)Nc2ccccc2F)cc1 | inactive
34 | NC(CCCP(=O)(O)O)C(=O)O (stereo unspecified) | inconclusive: 35.5 µM [inhibitor, single point]
35 | Cc1ccccc1-c1nn(-c2ccc(F)cc2F)cc1CNCCCN(C)C | active: 3.55 µM
36 | COc1ccc(-c2cc(-c3cccs3)c(C#N)c(SCC(=O)NCc3ccccc3)n2)cc1 | inconclusive: 1.26 µM [inhibitor, partial curve, poor fit]
37 | COc1ccc(CCNC(=O)Cn2c(=O)n(-c3ccccc3)c(=O)c3c(C)c(C)sc32)cc1OC | inconclusive: 6.31 µM [inhibitor, single point]
38 | CC=CCCN1C=C(C(=O)OCC)C(c2ccccc2)NC1=O (stereo unspecified) | inactive
39 | Cc1nnc(SCC(=O)N2CCN(c3ccccc3)CC2)n(N)c1=O | inconclusive: 31.6 µM [activator, single point]
40 | CCc1ccc2[nH]c(=O)c(C(c3nnnn3CC3CCCO3)N3CCN4CCCC4C3)cc2c1 (stereo unspecified) | inactive
41 | Cc1ccc(NCc2nnc(SCC(=O)Nc3cccc(O)c3)n2CC2CCCO2)c(C)c1 (stereo unspecified) | inconclusive: 0.146 µM [activator, full curve, poor fit]
42 | COc1ccc(N(C(=O)c2ccco2)S(=O)(=O)c2cccc([N+](=O)[O-])c2)cc1 | inconclusive: 25.9 µM [inhibitor, single point]
43 | O=C(CSc1cnc2ccccc2n1)c1ccc(F)cc1 | inconclusive: 29.1 µM [inhibitor, single point]
44 | COc1ccc(CCNc2oc(-c3ccccc3OC)nc2C#N)cc1OC | inactive

Compounds from the list above that contain bromine, in the order listed:
Row | SMILES | Potency
8 | CC(=O)c1c(C)oc2ccc(N(C(C)=O)S(=O)(=O)c3ccc(Br)cc3)cc12 | inconclusive: 35.5 µM [inhibitor, single point]
24 | CCOc1cc(Br)cc(/C=N/NC(=O)c2cccnc2)c1O | inconclusive: 6.31 µM [inhibitor, full curve, poor fit]

Individual results from the results shown:
For Potency, CCOc1cc(Br)cc(/C=N/NC(=O)c2cccnc2)c1O reads inconclusive: 6.31 µM [inhibitor, full curve, poor fit]
For Potency, NC(CCCP(=O)(O)O)C(=O)O (stereo unspecified) reads inconclusive: 35.5 µM [inhibitor, single point]
For Potency, Cc1noc(NS(=O)(=O)c2ccc(N/C=C/C(=O)c3ccc4c(c3)OCO4)cc2)c1C reads inconclusive: 0.651 µM [inhibitor, single point]

(cont.)

Row | SMILES | Potency
45 | CC(C)c1ccc(OCc2ccc(C(=O)N(C)C)o2)cc1 | inconclusive: 2.51 µM [activator, full curve, poor fit]
46 | COc1cccc(-c2nc3ccc(N4CCN(C)CC4)cc3[nH]2)c1 | inconclusive: 6.31 µM [inhibitor, partial curve, poor fit]
47 | O=C(COc1ccc(F)cc1)NCC(c1ccc(Cl)cc1)N1CCCCC1 (stereo unspecified) | inconclusive: 3.16 µM [inhibitor, single point]
48 | COc1cccc(C(=O)NC2CCN(C(=O)N3c4ccccc4Sc4ccccc43)CC2)c1 | active: 10.3 µM
49 | Cc1cc(-c2nc3ncccc3o2)ccc1NC(=O)c1ccccc1Br | inconclusive: 35.5 µM [inhibitor, single point]
50 | S=C1NCN(CCc2ccccc2)CN1Cc1ccccc1 | inactive
51 | CC(NC(=O)C1CCN(S(=O)(=O)c2cnc[nH]2)CC1)c1ccccc1 (stereo unspecified) | inactive
52 | COc1ccc(NC(=O)COC(=O)c2c3c(nc4ccccc24)CCCC3)cc1Cl | inconclusive: 3.16 µM [inhibitor, single point]
53 | O=C(NNc1ccc(F)cc1F)C1CCC1 | inconclusive: 15.8 µM [inhibitor, single point]
54 | Nc1ccc(Nc2nc(-c3cc4ccccc4oc3=O)cs2)cc1 | inconclusive: 35.5 µM [inhibitor, partial curve, poor fit]
55 | CCn1c(-c2cc(C3CC3)nc3ccccc23)n[nH]c1=S | inconclusive: 0.164 µM [inhibitor, full curve, poor fit]
56 | Cc1cc(NC(=O)c2ccc3c(c2)OCO3)ccc1NC(=O)c1ccccc1 | inconclusive: 35.5 µM [inhibitor, single point]
57 | CC(C)CN1C(=O)N[C@@](NC(=O)c2cccnc2)(C(F)(F)F)C1=O | inactive
58 | COc1cc2c(cc1OC)CN(C(=O)/C=C/c1cc(OC)c(OC)c(OC)c1)CC2 | inactive
59 | COc1ccc(/C=N/N2CCOCC2)cc1O | inconclusive: 0.708 µM [activator, full curve, poor fit]
60 | CCCCOc1cccc(C(=O)N(Cc2ccc(N(C)C)cc2)C2CCS(=O)(=O)C2)c1 (stereo unspecified) | inconclusive: 10 µM [inhibitor, partial curve, poor fit]
61 | CCN(CC(=O)Nc1c(F)cccc1F)C(=O)c1ccc(N2CCCC2)c([N+](=O)[O-])c1 | inconclusive: 12.6 µM [inhibitor, partial curve, poor fit]
62 | CCOC(=O)C1CCCN(S(=O)(=O)c2ccc(C)cc2)C1 (stereo unspecified) | inconclusive: 35.5 µM [inhibitor, single point]
63 | C/C(=N\NC(=O)c1cccc(O)c1)c1ccc(NC(=O)Cc2ccccc2)cc1 | inconclusive: 10 µM [activator, partial curve]
64 | C/C(=C/C(=O)N1CCc2ccccc21)C(=O)O | inconclusive: 1.58 µM [inhibitor, single point]
65 | NC(N)=N/N=C/c1ccc(OCc2ccccc2)c(OCc2ccccc2)c1 | inconclusive: 11.2 µM [inhibitor, partial curve, poor fit]
66 | CCn1nc(NC(=O)c2ccco2)c2cc3cc(C)ccc3nc21 | inconclusive: 12.6 µM [inhibitor, partial curve]
